Assay results from patent US20250130225A1, “SUBSTRATES FOR IMAGING GLUCOCEREBROSIDASE ACTIVITY” (SIMON FRASER UNIVERSITY, priority 2021, published 2025).

Columns and labels:
Format in all cases: cell-based, human
[1] = test system: GCase activity in SK-N-SH cells; assay: Live cell high content imaging of substrate turnover in SK-N-SH cells
[2] = test system: SK-N-SH cells; assay: Cellular retention of fluorescent signal in live SK-N-SH cells; conditions: substrate 10 μM for 2 h, washed, media with AT3375 10 μM; imaged 0 h to 3 h
[3] = test system: GCase activity in fixed SK-N-SH cells; assay: High content imaging of substrate 4 and 9b in fixed SK-N-SH cells; conditions: for dose dependence of signal intensity in fixed cells: 5 μM vs 10 μM substrate, 3 h, paraformaldehyde fixed

Compound	dose dependence of fluorescence per cell [1]	time dependence of fluorescence per cell ([1]; various substrate concentrations)	stability of signal intensity after replacement of media [2]	dose dependence of signal intensity in fixed cells [3]	stability of signal after paraformaldehyde fixation ([3]; fixed SK-N-SH cells)	time dependence of fluorescence per cell in fixed cells ([3]; fixed SK-N-SH cells, various substrate concentrations)
COc1cc(/N=N/c2ccc(C)cc2[N+](=O)[O-])c(C)cc1/N=N/c1ccc(N(C)CCCC(=O)NCCCO[C@@H]2O[C@H](COCc3cn(CCCNC(=O)[C@H](CCCCN(C)C)NC(=O)CCC4=[N+]5C(=Cc6c(C)cc(C)n6[B-]5(F)F)C=C4)nn3)[C@@H](O)[C@H](O)[C@H]2O)cc1 [substrate 1, (S)-2-(3-(5,5-difluoro-7,9-dimethyl-dipyrrolo[1,2-c:2′,1′-f][1,3,2]diazaborinin-4-ium-5-uid-3-yl)propanamido)-6-(dimethylamino)-N-(3-(4-((((2R,3S,4S,5R,6R)-3,4,5-trihydroxy-6-(3-(4-((4-((E)-(2-methoxy-5-methyl-4-((E)-(4-methyl-2-nitrophenyl)diazenyl)phenyl)diazenyl)phenyl)(methyl)amino)butanamido)propoxy)tetrahydro-2H-pyran-2-yl)methoxy)methyl)-1H-1,2,3-triazol-1-yl)propyl)hexanamide]	linear increase in fluorescence	linear increase from 30 minutes to 3 hours	stable at all time points measured	–	–	–
COc1cc(/N=N/c2ccc([N+](=O)[O-])cc2)c(OC)cc1/N=N/c1ccc(N(C)CCCC(=O)NCCCO[C@@H]2O[C@H](COCc3cn(CCCNC(=O)[C@H](CCCCNC(=O)OCC4[C@H]5CCc6nnn(CCCCC(NC(C)=O)C(=O)NC(CCCCN)C(=O)NC(CCCCN)C(=O)NC(CCCCN)C(N)=O)c6CC[C@@H]45)NC(=O)c4ccc(-c5c6ccc(=[N+](C)C)cc-6oc6cc(N(C)C)ccc56)c(C(=O)O)c4)nn3)[C@@H](O)[C@H](O)[C@H]2O)cc1 (some centres unmarked) [substrate 4]	–	–	–	doubling in fluorescent signal intensity with a doubling in substrate concentration	stable over the course of 6 days	linear increase from 30 minutes to 3 hours
COc1cc(/N=N/c2ccc([N+](=O)[O-])cc2)c(OC)cc1/N=N/c1ccc(N(C)CCCC(=O)NCCCO[C@@H]2O[C@H](COCc3cn(CCNC(=O)CCC4=[N+]5C(=Cc6ccc(-c7ccc[nH]7)n6[B-]5(F)F)C=C4)nn3)[C@@H](O)[C@H](O)[C@H]2O)cc1 [substrate 9b, 3-(3-((2-(4-((((2R,3S,4S,5R,6R)-6-(3-(4-((4-((E)-(2,5-dimethoxy-4-((E)-(4-nitrophenyl)diazenyl)phenyl)diazenyl)phenyl)(methyl)amino)-butanamido)propoxy)-3,4,5-trihydroxytetrahydro-2H-pyran-2-yl)methoxy)methyl)-1H-1,2,3-triazol-1-yl)ethyl)amino)-3-oxopropyl)-5,5-difluoro-7-(1H-pyrrol-2-yl)-5H-dipyrrolo[1,2-c:2′,1′-f][1,3,2]diazaborinin-4-ium-5-uide, reference compound]	–	–	showed decay within the first 30 minutes	no dose dependent difference in signal intensity	–	–
